# From the supplement of paper PMC12024529
# Structures can show the parent of a compound that is named as a salt. This is one part of the list. Part of the spread comes from offsets between plates or batches.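 The cells are HEK293 lines stably expressing B-domain-deleted factor VIII fused to Gaussia luciferase, either wild type or a misfolding-prone missense mutant. Each score is mean luminescence from triplicate wells minus the DMSO mean, divided by the DMSO standard deviation; a score of 2 or more counts as a hit, and low scores may reflect lower secretion or poorer cell viability.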
# What was measured:
# HEK293 WT BDD-FVIII-Gluc = test: secreted FVIII-Gluc luciferase Z-score vs DMSO control; higher = more FVIII-Gluc secretion; details: 5 µM; 24 h
# [1] = tested on: HEK293 p.N1941S BDD-FVIII-Gluc; test: as above; details: 5 µM; 24 h
SMILES,secreted FVIII-Gluc luciferase Z-score (HEK293 WT BDD-FVIII-Gluc),secreted FVIII-Gluc luciferase Z-score [1]
Nc1ccc(O)c(C(=O)O)c1 [Mesalamine (Lialda)],inactive: -1.97,inactive: 0.312
OC(Cn1cncn1)(Cn1cncn1)c1ccc(F)cc1F [Fluconazole],inactive: -0.334,inactive: 0.597
CCOC(=O)c1c(CSc2ccccc2)n(C)c2cc(Br)c(O)c(CN(C)C)c12 [Arbidol HCl],inactive: -2.66,inactive: -2.05
O=C(O)c1cc(/N=N/c2ccc(S(=O)(=O)Nc3ccccn3)cc2)ccc1O [Sulfasalazine (Azulfidine)],inactive: -1.7,inactive: -0.324
Cc1c(-c2ccccc2)oc2c(C(=O)OCCN3CCCCC3)cccc2c1=O [Flavoxate HCl],inactive: -1.04,inactive: 0.28
Nc1ccc(S(=O)(=O)Nc2ncccn2)cc1 [Sulfadiazine],inactive: -3.19,inactive: -0.0659
CCN(CC)C(=O)/C(C#N)=C/c1cc(O)c(O)c([N+](=O)[O-])c1 [Entacapone],inactive: -1.02,inactive: -0.43
O=C(N[C@H](CO)[C@H](O)c1ccc([N+](=O)[O-])cc1)C(Cl)Cl [Chloramphenicol (Chloromycetin)],inactive: -0.562,inactive: 0.921
COc1cc2nc(N3CCN(C(=O)C4COc5ccccc5O4)CC3)nc(N)c2cc1OC (configuration not stated) [Doxazosin mesylate],inactive: -5.51,inactive: -0.423
O=C(O)CCNC(=O)c1ccccc1 [Betamipron],inactive: 1.4,inactive: 0.182
COc1nc(C)nc(Cl)c1NC1=NCCN1 [Moxonidine],inactive: -0.486,inactive: -0.286
Cc1nccn1CC1CCc2c(c3ccccc3n2C)C1=O (configuration not stated) [Ondansetron hydrochloride (Zofran)],inactive: -12.7,inactive: 0.539
Cc1ccccc1N1C(=O)c2cc(S(N)(=O)=O)c(Cl)cc2NC1C (configuration not stated) [Metolazone (Zaroxolyn)],inactive: -4.36,inactive: 0.695
CN[C@H]1CC[C@@H](c2ccc(Cl)c(Cl)c2)c2ccccc21 [Sertraline HCl],inactive: -0.159,inactive: -1.87
CCC1=C[C@@H]2CN(C1)Cc1c([nH]c3ccccc13)[C@@](C(=O)OC)(c1cc3c(cc1OC)N(C)[C@H]1[C@@](O)(C(=O)OC)[C@H](OC(C)=O)[C@]4(CC)C=CCN5CC[C@]31[C@@H]54)C2 [Vinorelbine Tartrate],inactive: -5.6,inactive: -3.47
C=CC[C@@H]1/C=C(\C)C[C@H](C)C[C@H](OC)[C@H]2O[C@@](O)(C(=O)C(=O)N3CCCC[C@H]3C(=O)O[C@H](/C(C)=C/[C@@H]3CC[C@@H](O)[C@H](OC)C3)[C@H](C)[C@@H](O)CC1=O)[C@H](C)C[C@@H]2OC [FK-506 (Tacrolimus)],inactive: -3.11,inactive: -1.43
Cc1c(N(C)C)c(=O)n(-c2ccccc2)n1C [Amidopyrine],inactive: 0.00679,inactive: -1.12
CC(=O)OCC(=O)[C@@]12N=C(C)O[C@@H]1C[C@H]1[C@@H]3CCC4=CC(=O)C=C[C@]4(C)[C@H]3[C@@H](O)C[C@@]12C [Deflazacort (Calcort)],active: 2.41,active: 5.85
COc1ccccc1OCC(O)CN1CCN(CC(=O)Nc2c(C)cccc2C)CC1 (configuration not stated) [Ranolazine (Ranexa)],inactive: -3.59,inactive: -0.46

# Reformatted as tab-separated lines: 16 of the compounds above.
SMILES	secreted FVIII-Gluc luciferase Z-score (HEK293 WT BDD-FVIII-Gluc)	secreted FVIII-Gluc luciferase Z-score [1]
Nc1ccc(O)c(C(=O)O)c1 [Mesalamine (Lialda)]	inactive: -1.97	inactive: 0.312
OC(Cn1cncn1)(Cn1cncn1)c1ccc(F)cc1F [Fluconazole]	inactive: -0.334	inactive: 0.597
CCOC(=O)c1c(CSc2ccccc2)n(C)c2cc(Br)c(O)c(CN(C)C)c12 [Arbidol HCl]	inactive: -2.66	inactive: -2.05
O=C(O)c1cc(/N=N/c2ccc(S(=O)(=O)Nc3ccccn3)cc2)ccc1O [Sulfasalazine (Azulfidine)]	inactive: -1.7	inactive: -0.324
Cc1c(-c2ccccc2)oc2c(C(=O)OCCN3CCCCC3)cccc2c1=O [Flavoxate HCl]	inactive: -1.04	inactive: 0.28
CCN(CC)C(=O)/C(C#N)=C/c1cc(O)c(O)c([N+](=O)[O-])c1 [Entacapone]	inactive: -1.02	inactive: -0.43
O=C(N[C@H](CO)[C@H](O)c1ccc([N+](=O)[O-])cc1)C(Cl)Cl [Chloramphenicol (Chloromycetin)]	inactive: -0.562	inactive: 0.921
COc1cc2nc(N3CCN(C(=O)C4COc5ccccc5O4)CC3)nc(N)c2cc1OC (configuration not stated) [Doxazosin mesylate]	inactive: -5.51	inactive: -0.423
O=C(O)CCNC(=O)c1ccccc1 [Betamipron]	inactive: 1.4	inactive: 0.182
COc1nc(C)nc(Cl)c1NC1=NCCN1 [Moxonidine]	inactive: -0.486	inactive: -0.286
Cc1nccn1CC1CCc2c(c3ccccc3n2C)C1=O (configuration not stated) [Ondansetron hydrochloride (Zofran)]	inactive: -12.7	inactive: 0.539
Cc1ccccc1N1C(=O)c2cc(S(N)(=O)=O)c(Cl)cc2NC1C (configuration not stated) [Metolazone (Zaroxolyn)]	inactive: -4.36	inactive: 0.695
CCC1=C[C@@H]2CN(C1)Cc1c([nH]c3ccccc13)[C@@](C(=O)OC)(c1cc3c(cc1OC)N(C)[C@H]1[C@@](O)(C(=O)OC)[C@H](OC(C)=O)[C@]4(CC)C=CCN5CC[C@]31[C@@H]54)C2 [Vinorelbine Tartrate]	inactive: -5.6	inactive: -3.47
C=CC[C@@H]1/C=C(\C)C[C@H](C)C[C@H](OC)[C@H]2O[C@@](O)(C(=O)C(=O)N3CCCC[C@H]3C(=O)O[C@H](/C(C)=C/[C@@H]3CC[C@@H](O)[C@H](OC)C3)[C@H](C)[C@@H](O)CC1=O)[C@H](C)C[C@@H]2OC [FK-506 (Tacrolimus)]	inactive: -3.11	inactive: -1.43
Cc1c(N(C)C)c(=O)n(-c2ccccc2)n1C [Amidopyrine]	inactive: 0.00679	inactive: -1.12
CC(=O)OCC(=O)[C@@]12N=C(C)O[C@@H]1C[C@H]1[C@@H]3CCC4=CC(=O)C=C[C@]4(C)[C@H]3[C@@H](O)C[C@@]12C [Deflazacort (Calcort)]	active: 2.41	active: 5.85

# Remaining list, next part.

SMILES,secreted FVIII-Gluc luciferase Z-score (HEK293 WT BDD-FVIII-Gluc),secreted FVIII-Gluc luciferase Z-score [1]
CCCCC(=O)O[C@H]1CC[C@H]2[C@@H]3CCc4cc(O)ccc4[C@H]3CC[C@]12C [Estradiol valerate],inactive: -1.14,inactive: -2.52
CC(C)C[C@H](NC(=O)[C@H](Cc1ccccc1)NC(=O)c1cnccn1)B(O)O [Bortezomib (Velcade)],inactive: -5.34,inactive: -13.7
CCc1oc2ccccc2c1C(=O)c1cc(Br)c(O)c(Br)c1 [Benzbromarone],inactive: -0.651,inactive: -0.643
CC(=O)Oc1cc2c(s1)CCN(C(C(=O)C1CC1)c1ccccc1F)C2 (configuration not stated) [Prasugrel (Effient)],inactive: 1.44,inactive: -1.04
O=C(Nc1cccc2c(=O)cc(-c3nnn[nH]3)oc12)c1ccc(OCCCCc2ccccc2)cc1 [Pranlukast],inactive: 0.81,inactive: 0.854
CC1=C(/C=C/C(C)=C/C=C/C(C)=C/C(=O)O)C(C)(C)CCC1 [Tretinoin (Aberela)],inactive: -3.16,inactive: 0.674
C[C@H]1O[C@@H](n2cc(F)c(=O)[nH]c2=O)[C@H](O)[C@@H]1O [Doxifluridine],inactive: -0.947,inactive: -0.477
CCCNC(=O)NS(=O)(=O)c1ccc(Cl)cc1 [Chlorpropamide],inactive: 1.98,inactive: 0.989
CN(C)CCC=C1c2ccccc2CCc2ccccc21 [Amitriptyline HCl],inactive: -0.784,inactive: -0.612
"Cn1cnc([N+](=O)[O-])c1Sc1ncnc2[nH]cnc12 [Azathioprine (Azasan, Imuran)]",inactive: -5.32,inactive: -1.69
CCN(CCCc1ccccc1)CCCc1ccccc1 [Alverine Citrate],inactive: -1.13,inactive: -0.108
CC(C)CN(C[C@@H](O)[C@H](Cc1ccccc1)NC(=O)O[C@H]1CCOC1)S(=O)(=O)c1ccc(N)cc1 [Amprenavir (Agenerase)],inactive: -0.647,inactive: 0.917
c1ccc2c(c1)CCCC2C1=NCCN1 (configuration not stated) [tetrahydrozoline hydrochloride],inactive: -0.998,inactive: -1.32
CC1(C)S[C@@H]2[C@H](NC(=O)[C@H](N)c3ccc(O)cc3)C(=O)N2[C@H]1C(=O)O [Amoxicillin (Amoxycillin)],active: 2.24,inactive: -0.246
CCCOc1ccc(C(=O)OCCN(CC)CC)cc1N [Proparacaine HCl],active: 2.26,inactive: 0.289
Cc1c(-c2ccc(O)cc2)n(Cc2ccc(OCCN3CCCCCC3)cc2)c2ccc(O)cc12 [Bazedoxifene HCl],inactive: -0.199,inactive: -0.607
CN1CCN(c2cc3c(cc2F)c(=O)c(C(=O)O)cn3-c2ccc(F)cc2)CC1 [Difloxacin HCl],inactive: 0.547,inactive: 0.843
CSc1nc2cc(Cl)c(Oc3cccc(Cl)c3Cl)cc2[nH]1 [Triclabendazole],inactive: 0.349,inactive: 0.46
Fc1ccc([C@@H]2CCNC[C@H]2COc2ccc3c(c2)OCO3)cc1 [Paroxetine HCl],inactive: -4.31,inactive: -0.711

SMILES,secreted FVIII-Gluc luciferase Z-score (HEK293 WT BDD-FVIII-Gluc),secreted FVIII-Gluc luciferase Z-score [1]
O=c1cc[nH]c(=O)[nH]1 [Uracil],inactive: 1.39,inactive: 1.42
CCOC(=O)O[C@]1(C(=O)OCCl)CC[C@H]2[C@@H]3CCC4=CC(=O)C=C[C@]4(C)[C@H]3[C@@H](O)C[C@@]21C [Loteprednol etabonate],inactive: -1.58,inactive: -1.17
NC(CO)(CO)CO [Trometamol],active: 2.09,inactive: 0.806
COc1ccc2[nH]cc(CCNC(C)=O)c2c1 [Melatonin],inactive: -0.781,inactive: 1.07
CCCc1nc(C)c2c(=O)nc(-c3cc(S(=O)(=O)N4CCN(CC)CC4)ccc3OCC)[nH]n12 [Vardenafil (Vivanza)],inactive: 0.885,inactive: -6.49
C/C(=C\C(=O)OCCCCCCCCC(=O)O)C[C@@H]1OC[C@H](C[C@@H]2O[C@H]2[C@@H](C)[C@H](C)O)[C@@H](O)[C@H]1O [Mupirocin],inactive: 0.658,inactive: 1.77
"CN1CCN2c3ncccc3Cc3ccccc3C2C1 (configuration not stated) [Mirtazapine (Remeron, Avanza)]",inactive: 1.12,inactive: 1.6
Nc1nc2n[nH]nc2c(=O)[nH]1 [Azaguanine-8],inactive: 0.459,inactive: 0.574
N#CC[C@H](C1CCCC1)n1cc(-c2ncnc3[nH]ccc23)cn1,inactive: 1.69,inactive: 0.0635
CC(C)C(=O)Oc1ccc(CO)cc1[C@H](CCN(C(C)C)C(C)C)c1ccccc1 [Fesoterodine fumarate (Toviaz)],inactive: -0.041,inactive: -1.83
O=C(O)Cc1cc(I)c(Oc2ccc(O)c(I)c2)c(I)c1 [Tiratricol],active: 3.45,inactive: 1.74
CC(CCc1ccc(O)cc1)NCC(O)c1ccc(O)cc1 (configuration not stated) [Ractopamine HCl],inactive: -1.94,active: 2.02
COc1cnc(NS(=O)(=O)c2ccc(N)cc2)nc1 [Sulfameter (Bayrena)],inactive: -1.35,inactive: 0.646
C[C@@H](O)[C@H]1C(=O)N2C(C(=O)O)=C(S[C@@H]3CN[C@H](CNS(N)(=O)=O)C3)[C@H](C)[C@H]12 [Doripenem Hydrate],inactive: -2.73,inactive: -2.71
COc1cccc2c1C(=O)c1c(O)c3c(c(O)c1C2=O)C[C@@](O)(C(=O)CO)C[C@@H]3O[C@H]1C[C@H](N)[C@@H](O)[C@H](C)O1 [Epirubicin HCl],inactive: -3.89,inactive: -11.2
Nc1cccc2c1CN(C1CCC(=O)NC1=O)C2=O (configuration not stated) [Lenalidomide],inactive: 1.78,inactive: -0.0959
CC(C)[C@H]1CC[C@H](C(=O)N[C@H](Cc2ccccc2)C(=O)O)CC1 [Nateglinide (Starlix)],inactive: -0.21,inactive: -0.383
Cc1oncc1C(=O)Nc1ccc(C(F)(F)F)cc1 [Leflunomide],inactive: 0.489,inactive: 0.573
